{"source": "paper PMC3527619", "target": "Tubulin purified from bovine brain, polymerised to microtubules in vitro (bovine)", "experiment": "anti-His immunofluorescence on in vitro assembled microtubules (DIC microscopy); MTs assembled with 5 µM Centaurin-α2, without or with 30 minutes on ice, fixed with 0.5% glutaraldehyde on poly-L-lysine slides; anti-His antibody; both purified", "note": "These are yes or no findings as the source states them, for the method shown. A result given as binding can be weak or reduced; the word gives no strength. Where a sequence is shown, tags or fusion partners need not be part of it."}
{"binder": "His-tagged Centaurin-α2 (recombinant, pET-Centα2) (protein, UniProt Q9NPF8 1-381) MGDRERNKKRLLELLRAPDTGNAHCADCGAADPDWASYKLGIFICLNCCGVHRNFPDISRVKSVRLDFWDDSIVEFMIHNGNLRVKAKFEARVPAFYYIPQANDCLVLKEQWIRAKYERREFMADGETISLPGNREGFLWKRGRDNSQFLRRKFVLLAREGLLKYFTKEQGKSPKAVISIKDLNATFQTEKIGHPHGLQITYRRDGHTRNLFVYHESGKEIVDWFNALRAARLQYLKMAFPELPESELVPFLTRNYLKQGFMEKTGPKQKEPFKKRWFALDCHERRLLYYKNPLDAFEQGQVFLGNKEQGYEAYEDLPKGIRGNRWKAGLTIVTPERRFVLTCPSEKEQQEWLESLRGVLSSPLTPLNRLTASTESGRSSR", "values": [{"measurement": "binding", "value": "binds"}]}
